Measurements reported in PubChem BioAssay AID2685 (National Center for Advancing Translational Sciences (NCATS), 2010).
The list shows a part of the results. The main result of the screen is listed elsewhere. These columns were measured beside it and carry no call. The list favours compounds with an active or inconclusive main result. Potencies come from curve fits of mixed quality, noted in brackets.

Experiment: qHTS Assay for Lipid Storage Modulators in Drosophila S3 Cells;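 on cell number change: cells counted by Cell Tracker Red CMTPX staining in the red channel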
Conditions: BODIPY lipid droplet fluorescence, 18-24 h; for cell number change: measured here: cell count max response, cells fed with added oleic acid
Summary of the method: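 Drosophila S3 cells got compounds at several concentrations plus oleic acid (400 uM solution). Laser-scanning cytometry with 488 nm excitation read lipid droplets at 500-530 nm and cells at 575-640 nm. Percent activity was relative to 20 uM Triacsin C.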

[1] = measured here: lipid fluorescence (Fed channel) AC50, cells fed with added oleic acid
[2] = measured here: cell number channel AC50, cells fed with added oleic acid

Structure (SMILES)	cell number change [%]	AC50 [1]	AC50 [2]
Cc1onc(-c2c(Cl)cccc2Cl)c1C(=O)NCCCN1CCOCC1	1.72	1.46 µM [falling, partial curve, poor fit]	
O=C1c2cccnc2C(Nc2ccc(S(=O)(=O)N3CCCCCC3)cc2)N1Cc1ccccc1 (stereo unspecified)	-46.2	14.6 µM [falling, partial curve, poor fit]	32.6 µM [falling, single point]
CC(C)(C)c1cc(C(=O)NNC(=O)c2ccc(Cl)cc2)no1	19.2	18.4 µM [rising, single point]	
COC(=O)[C@H](C)NC(=O)NC1CCN(Cc2ccccc2)CC1	-37.8	23.1 µM [falling, partial curve]	0.00461 µM [falling, full curve, poor fit]
CN(C)CCNC(=O)C1(O)c2cc(Br)ccc2NC(=O)N1c1ccc(Cl)cc1 (stereo unspecified)	12.5	29.1 µM [rising, single point]	
O=C(Nc1ccc(F)cc1)Nc1ccc(N2CCOCC2)c2nonc12	8.89		
N#Cc1sc2nc3c(c(-c4cccnc4)c2c1N)CCC3	80.8	0.291 µM [rising, full curve]	7.31 µM [rising, partial curve]
CCOc1ccc(C(=O)N2CCCC(c3nc(-c4ccc(C)o4)no3)C2)cc1 (stereo unspecified)	53.8	1.64 µM [falling, full curve, poor fit]	25.9 µM [rising, partial curve, poor fit]
COc1cc(C(=O)N2CCNCC2)cc(OC)c1OC	4.21	6.51 µM [falling, single point]	
Cc1ccc(N(CC(=O)NCc2ccco2)C(=O)CNS(=O)(=O)c2ccc(F)cc2)c(C)c1	8.75	0.291 µM [falling, partial curve, poor fit]	
Cc1ccc(S(=O)(=O)N(C)C)cc1NC(=O)c1cc(C(C)(C)C)nn1Cc1ccccc1	-44.4	9.2 µM [falling, partial curve]	2.91 µM [falling, partial curve]
CC(C)N(CCNC(=O)C1CCCN(c2ncnc3c2nc2n3CCCCC2)C1)Cc1ccccc1 (stereo unspecified)	-17.9	23.1 µM [rising, partial curve]	
Cc1nc(N)sc1-c1csc(Nc2cccc(C(=O)O)c2)n1	5.29	6.51 µM [rising, single point]	
COC(CNC(=O)CNC(=S)N(Cc1ccccc1)Cc1cccs1)OC	19.2	2.59 µM [rising, partial curve]	2.91 µM [rising, single point]
CC(C)(C)c1csc(NC(=O)C2=COCCO2)n1	10.5		
C=CCN1C(=O)C2C(C(=O)NCc3ccccc3)C3(C)C=CC2(O3)C1C(=O)NC(C)(C)C (stereo unspecified)	31.5		1.84 µM [rising, partial curve, poor fit]
COc1cc(N2CCCC2)c(OC)cc1/C=C(/C#N)c1cccc(Br)c1	-64.3	29.1 µM [falling, single point]	29.1 µM [falling, single point]
COc1ccccc1C(=O)NCCCNC(=O)c1ccccn1	-13.3		
Cc1nn(C)cc1C=NCCOCc1ccccc1	-15.6	2.91 µM [rising, single point]	
CCCN(CCO)CCCc1ccccc1	-92.1		23.1 µM [falling, partial curve]

Ordered by molar mass (rising): 4 of the compounds above
Structure (SMILES)	cell number change [%]	AC50 [1]	AC50 [2]
Cc1nn(C)cc1C=NCCOCc1ccccc1	-15.6	2.91 µM [rising, single point]	
Cc1onc(-c2c(Cl)cccc2Cl)c1C(=O)NCCCN1CCOCC1	1.72	1.46 µM [falling, partial curve, poor fit]	
COC(CNC(=O)CNC(=S)N(Cc1ccccc1)Cc1cccs1)OC	19.2	2.59 µM [rising, partial curve]	2.91 µM [rising, single point]
O=C1c2cccnc2C(Nc2ccc(S(=O)(=O)N3CCCCCC3)cc2)N1Cc1ccccc1 (stereo unspecified)	-46.2	14.6 µM [falling, partial curve, poor fit]	32.6 µM [falling, single point]

Following part:

Structure (SMILES)	cell number change [%]	AC50 [1]	AC50 [2]
CCN(C(=O)COC(=O)CCc1ccccc1OC)c1c(N)n(Cc2ccccc2)c(=O)[nH]c1=O	-10.2	0.164 µM [falling, full curve]	0.146 µM [falling, full curve]
Cc1ccccc1-n1nnnc1SCC(N)=O	6.84	0.0366 µM [falling, full curve, poor fit]	
CCOC(=O)c1nc2cc3n(c(C)c-2c1C)C(C)C(C)=C3C (stereo unspecified)	96.6		18.4 µM [rising, partial curve]
COc1ccc(OCCOc2ccc(/C=C3\C(=N)N4N=C(C)SC4=NC3=O)cc2)cc1	4.95	0.411 µM [rising, full curve, poor fit]	
Cc1ccc(C(=O)N2N=C(c3ccc(Br)cc3)CC2c2ccccc2O)cc1 (stereo unspecified)	-58.7	0.731 µM [falling, full curve]	18.4 µM [falling, partial curve, poor fit]
Cn1cnnc1SCC(=O)Nc1ccccc1Oc1ccccc1	-10.7		
O=C(NCc1ccc2c(c1)OCO2)c1ccc2c(c1)C(=O)N(Cc1cccnc1)C2=O		2.06 µM [rising, partial curve]	2.31 µM [rising, partial curve]
CCCCNc1nc(N)ncc1[N+](=O)[O-]	0.82	0.651 µM [falling, full curve, poor fit]	
CCC(C)Sc1nnc(Cc2cc(=O)[nH]c(=O)[nH]2)n1-c1ccc(F)cc1 (stereo unspecified)	8.22		
O=C(CNS(=O)(=O)c1ccc([N+](=O)[O-])cc1)N/N=C\c1ccc(O)cc1	19	20.6 µM [falling, partial curve, poor fit]	
COC(=O)c1ccc(NC(=S)N2CCN(Cc3cccc(C)c3)CC2)cc1		23.1 µM [rising, single point]	
CCOc1ccccc1N(C)C(=O)c1cn(C)c(=O)c2ccccc12	19.4	9.2 µM [rising, partial curve]	
COc1ccccc1C1C(C(=O)c2cc3ccccc3o2)=C(O)C(=O)N1CCN1CCOCC1 (stereo unspecified)	8.19	0.146 µM [falling, full curve, poor fit]	
O=C1C(c2ccccc2)SC(=Nc2ccccc2)N1S(=O)(=O)c1ccccc1 (stereo unspecified)	5.9	23.1 µM [falling, single point]	
O=C(O)c1ccc(N2C(=O)c3cccnc3C2=O)cc1	-11.8	23.1 µM [falling, partial curve]	
Cc1cc(NC(=O)Cn2nc(C)c([N+](=O)[O-])c2C)no1	-40.8		7.31 µM [falling, single point]
CN(CC(=O)Nc1ccc(F)cc1)C(=O)CCc1ccccc1	6.05		
CCCCOc1ccc(C2(C)NC(=O)NC2=O)cc1 (stereo unspecified)	14.4	0.146 µM [falling, full curve]	
N#Cc1ccc(NC(=O)CSc2nc3[nH]c(=O)cc(O)c3s2)cc1	-19.9		0.0326 µM [falling, full curve, poor fit]
S=c1[nH]nc(-c2n[nH]c3c2CCC3)n1/N=C/C=C/c1ccco1	28.2	6.51 µM [rising, full curve, poor fit]	

Structure (SMILES)	cell number change [%]	AC50 [1]	AC50 [2]
Nc1nc(SCC(=O)NCCOCCO)nc2sc3c(c12)CCCC3	15	0.82 µM [falling, full curve, poor fit]	
COc1cc(/C=N/NC(=O)Cn2nc([N+](=O)[O-])cc2C)cc(Br)c1OCc1ccccc1		0.58 µM [rising, single point]	
COc1cc(OC)cc(C(=O)Nc2ccc3c(c2)OCCO3)c1		29.1 µM [falling, single point]	
Cc1cccc(NC(=O)CSCC(=O)N2CCN(Cc3ccc4c(c3)OCO4)CC2)c1		0.58 µM [rising, single point]	
COCCCn1c(=O)c2ccccc2n(Cc2cc(C(=O)OC)ccc2OC)c1=O	-6.04	6.51 µM [falling, single point]	
CCc1ccc(OCCCC(=O)Nc2ccc(N3CCCCC3)cc2)cc1	-7.13		
COc1cc(CNc2ccc(O)cc2)cc(Br)c1OCc1ccccc1F	-3.92	16.4 µM [falling, single point]	
CCO[C@@H]1c2c(ccc3ccc(=O)oc23)OC(C)(C)[C@@H]1O	-21.1		0.651 µM [falling, full curve, poor fit]
NCCCCCC(=O)N/N=C/c1ccc2nccnc2c1	-13.3	13 µM [falling, partial curve]	
COc1cc(NS(=O)(=O)c2ccc(F)cc2)c(OC)cc1NC(C)=O	-2.83	0.164 µM [rising, full curve, poor fit]	
CN(CC(=O)Nc1cccc(F)c1)C(=O)c1ccc(N2CCCC2)c([N+](=O)[O-])c1		18.4 µM [rising, single point]	
O=c1[nH]cnc2c1sc1nc(C(F)F)cc(-c3ccccc3)c12	-6.1	3.66 µM [rising, full curve]	
CCc1cccc(CC)c1NC(=S)NC(C)c1ccccc1 (stereo unspecified)	9.15	32.6 µM [falling, single point]	6.51 µM [rising, single point]
Cn1c(=O)c2c(-c3ccc(C(C)(C)C)cc3)n(CC3CCCO3)cc2n(C)c1=O (stereo unspecified)	-0.153	0.00461 µM [falling, full curve, poor fit]	
Cc1nnc(SC(C)C(=O)Nc2ccc3ccccc3c2)[nH]c1=O (stereo unspecified)	5.22	29.1 µM [rising, single point]	
CC(C)C(=O)Nc1ccc(C(=O)Nc2nnc(C(C)(C)C)s2)cc1	-2.23		
O=C(Nc1nc(COc2ccccc2)cs1)C12CC3CC(CC(C3)C1)C2	77.3	20.6 µM [rising, partial curve]	29.1 µM [rising, single point]
COc1ccc(C2N(c3ccccc3)C(=S)N3CCCN23)cc1 (stereo unspecified)	-11	0.00651 µM [falling, full curve, poor fit]	
CCN(CC(=O)NC1CCS(=O)(=O)C1)S(=O)(=O)c1cc([N+](=O)[O-])ccc1C (stereo unspecified)	1.5	29.1 µM [rising, single point]	
